PubChem BioAssay AID1259254, NCATS | 2017
The deposit covers about 59,000 reagents; below is a random part of them. In the full data, about 1,550 (2.6%) got an active call. 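G2 share is only a proxy for re-replication; each gene was hit by three separate siRNAs, and active genes were retested.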 Raw values vary from plate to plate and are shown uncorrected. Entries without a mark were called inactive. Reagents against one gene are numbered here. Not given: the amount of reagent.

Aim: 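Finding genes that stop cells copying their DNA twice in one cycle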 (primary screen)
Cell system: human HCT116 colorectal cancer cells
Knock-down reagent: single siRNA against human genes
Time to read-out: 3 days
Measurement: 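Imaged Hoechst DNA stain sorts each cell into a cycle phase by DNA amount; per plate, G2 fraction set to 0% for non-targeting and 100% for GMNN siRNA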
Scale: G2 robust z-score and G2 cells, % of GMNN control: higher = more G2 cells, more excess DNA replication; raw share of cells in G2: higher = larger share of cells with G2 DNA content
Hit rule: 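Active siRNAs have a G2 robust z of 5 or more median absolute deviations over the median, which in these data means about 38% or higher of GMNN control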

The first 3 entries as a preview:
no.	target	siRNA no.	G2 robust z-score	G2 cells, % of GMNN control	raw share of cells in G2 (%)
1	UNC93B1 (GeneID 81622)	1	0.415	5.88	6.07
2	UNC93B1 (GeneID 81622)	2	4.08	31.7	12.9
3	UNC93B1 (GeneID 81622)	3	0.0109	3.04	3.33

Main list, from the start:
no.	target	siRNA no.	G2 robust z-score	G2 cells, % of GMNN control	raw share of cells in G2 (%)
1	UNC93B1 (GeneID 81622)	1	0.415	5.88	6.07
2	UNC93B1 (GeneID 81622)	2	4.08	31.7	12.9
3	UNC93B1 (GeneID 81622)	3	0.0109	3.04	3.33
4	PIGK (GeneID 10026)	1	0.105	3.71	6.6
5	PIGK (GeneID 10026)	2	-0.869	-3.15	3.47
6	PIGK (GeneID 10026)	3	-0.516	-0.662	2.97
7	NOL9 (GeneID 79707)	1	1.15	11	9.03
8	NOL9 (GeneID 79707)	2	-0.322	0.705	4.61
9	NOL9 (GeneID 79707)	3	-0.965	-3.82	1.33
10	ELP2 (GeneID 55250)	1	-0.553	-0.927	4.17
11	ELP2 (GeneID 55250)	2	-0.291	0.922	4.52
12	ELP2 (GeneID 55250)	3	-0.727	-2.14	2.45
13	RPUSD3 (GeneID 285367)	1	-0.593	-1.2	3.84
14	RPUSD3 (GeneID 285367)	2	0.934	9.54	10
15	RPUSD3 (GeneID 285367)	3	-0.0127	2.88	6.08
16	ADAM30 (GeneID 11085)	1	4.83	36.9	18.4
17	ADAM30 (GeneID 11085)	2	-0.334	0.615	5.12
18	ADAM30 (GeneID 11085)	3	2.72	22.1	12.1
19	NPFFR2 (GeneID 10886)	1	-0.261	1.13	6.25
20	NPFFR2 (GeneID 10886)	2	-0.252	1.19	4.93
21	NPFFR2 (GeneID 10886)	3	0.0601	3.39	4.31
22	STIM1 (GeneID 6786)	1	-0.139	1.99	6.01
23	STIM1 (GeneID 6786)	2	2.25	18.8	11.4
24	STIM1 (GeneID 6786)	3	0.209	4.44	4.92
25	ACOT4 (GeneID 122970)	1	2.81	22.7	14.7
26	ACOT4 (GeneID 122970)	2	0.172	4.18	7.61
27	ACOT4 (GeneID 122970)	3	-0.958	-3.77	3.05
28	NCAPH (GeneID 23397)	1	-0.618	-1.38	2.82
29	NCAPH (GeneID 23397)	2	3.59	28.3	15
30	NCAPH (GeneID 23397)	3	-0.571	-1.05	3.48
31	DEFB126 (GeneID 81623)	1	1.25	11.8	5.98
32	DEFB126 (GeneID 81623)	2	-0.954	-3.75	2.86
33	DEFB126 (GeneID 81623)	3	-0.569	-1.03	3.15
34	GYG1 (GeneID 2992)	1	-0.655	-1.64	4.45
35	GYG1 (GeneID 2992)	2	0.763	8.34	8.86
36	GYG1 (GeneID 2992)	3	-0.949	-3.71	2.84
37	KIAA1671 (GeneID 85379)	1	0.0795	3.53	4.46
38	KIAA1671 (GeneID 85379)	2	1.72	15.1	10.5
39	KIAA1671 (GeneID 85379)	3	-0.88	-3.23	1.99
40	KIAA1671 (GeneID 85379)	4	0.934	9.54	5.95
41	KIAA1671 (GeneID 85379)	5	-0.433	-0.0823	4.06
42	KIAA1671 (GeneID 85379)	6	-0.473	-0.361	3.1
43	RCN3 (GeneID 57333)	1	2.59	21.2	10.3
44	RCN3 (GeneID 57333)	2	2.33	19.3	14.6
45	RCN3 (GeneID 57333)	3	-0.701	-1.97	3.01
46	FOXF1 (GeneID 2294)	1	2.69	21.9	11.5
47	FOXF1 (GeneID 2294)	2	0.209	4.44	6.95
48	FOXF1 (GeneID 2294)	3	3.39	26.8	15
49	PLSCR3 (GeneID 57048)	1	-1.26	-5.89	1.88
50	PLSCR3 (GeneID 57048)	2	-0.0224	2.81	5.45
51	PLSCR3 (GeneID 57048)	3	0.602	7.2	9.59
52	SPEF1 (GeneID 25876)	1	0.701	7.9	7.38
53	SPEF1 (GeneID 25876)	2	-0.612	-1.34	3.36
54	SPEF1 (GeneID 25876)	3	-0.642	-1.55	2.76
55	CHST7 (GeneID 56548)	1	-0.927	-3.55	4.87
56	CHST7 (GeneID 56548)	2	0.302	5.1	6.26
57	CHST7 (GeneID 56548)	3	-0.841	-2.95	3.1
58	UBTFL3 (GeneID 129870)	1	-0.627	-1.45	3.63
59	UBTFL3 (GeneID 129870)	2	-0.233	1.33	3.52
60	UBTFL3 (GeneID 129870)	3	1.13	10.9	6.54
61	ZNF451 (GeneID 26036)	1	3.05	24.4	17.2
62	ZNF451 (GeneID 26036)	2	-0.685	-1.85	3.57
63	ZNF451 (GeneID 26036)	3	1.06	10.4	7.41
64	WSB1 (GeneID 26118)	1	0.738	8.16	7.48
65	WSB1 (GeneID 26118)	2	0.534	6.73	6.85
66	WSB1 (GeneID 26118)	3	1.02	10.1	6.84
67	TMEM50B (GeneID 757)	1	-0.63	-1.47	4.61
68	TMEM50B (GeneID 757)	2	0.691	7.83	6.96
69	TMEM50B (GeneID 757)	3	0.16	4.09	5.13
